No constants are given. Whether binding was seen depends on the method and setting. For some of these results: Binding seen in cells or lysates may run through a third protein. Some entries that bind do so weakly or less than the wild type. For some of these results: Where a sequence is shown, tags or fusion partners need not be part of it.
Key:
[1] = molecular target: GAL4 BD::pUL50(1–358)-co (HCMV) (UniProt P16791); assay: two-hybrid
[2] = molecular target: truncated pUL53, Flag-tagged (wild-type) (HCMV) (UniProt P16794); assay: co-IP; 293T cells transiently cotransfected, lysed three d p.t.; Flag-tagged hook constructs immunoprecipitated with mAb-Flag (Dynabeads); HA-tagged groove proteins lacking their TMD detected by Western blot; performed once
[3] = molecular target: pUL50-HA, full-length (HCMV) (UniProt P16791); assay: co-IP; 293T cells transiently cotransfected, lysed three d p.t.; HA-tagged groove proteins (full-length or without TMD) immunoprecipitated with mAb-HA (Dynabeads); Flag-tagged hook proteins detected by Western blot; performed three times
[4] = molecular target: pUL50(1–358)-HA (HCMV (strain AD169)) (UniProt P16791); assay: as above
[5] = molecular target: GAL4 BD::BFRF1(1–315) (EBV (strain B95-8)) (UniProt P03185); assay: two-hybrid
[6] = molecular target: HA-BFRF1(1–315) (EBV (strain B95-8)) (UniProt P03185); assay: co-IP; 293T cells transiently cotransfected, lysed three d p.t.; HA-tagged groove proteins (full-length or without TMD) immunoprecipitated with mAb-HA (Dynabeads); Flag-tagged hook proteins detected by Western blot; performed three times
[7] = molecular target: T1, HA-BFRF1, full-length (EBV) (UniProt P03185); assay: as above
T1 sequence: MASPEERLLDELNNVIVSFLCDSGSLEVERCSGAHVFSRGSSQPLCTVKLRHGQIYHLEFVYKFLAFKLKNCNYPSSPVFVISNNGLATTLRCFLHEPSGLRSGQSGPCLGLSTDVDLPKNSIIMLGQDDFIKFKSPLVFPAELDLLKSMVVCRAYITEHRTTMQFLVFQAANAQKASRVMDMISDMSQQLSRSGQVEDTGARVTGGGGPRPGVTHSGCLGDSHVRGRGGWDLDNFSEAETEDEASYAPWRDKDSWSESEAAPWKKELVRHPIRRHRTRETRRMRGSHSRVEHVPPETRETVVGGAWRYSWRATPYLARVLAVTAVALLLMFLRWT

By UniProt entry, the sequences of proteins in these tests, tags left out. Where a name states a change or a piece, a line headed by the entry shows the natural chain unless it says otherwise. Chains listed by the source or under a name are the forms on record and can include a tag or linker. Residues count along the entry.
UniProt P16791: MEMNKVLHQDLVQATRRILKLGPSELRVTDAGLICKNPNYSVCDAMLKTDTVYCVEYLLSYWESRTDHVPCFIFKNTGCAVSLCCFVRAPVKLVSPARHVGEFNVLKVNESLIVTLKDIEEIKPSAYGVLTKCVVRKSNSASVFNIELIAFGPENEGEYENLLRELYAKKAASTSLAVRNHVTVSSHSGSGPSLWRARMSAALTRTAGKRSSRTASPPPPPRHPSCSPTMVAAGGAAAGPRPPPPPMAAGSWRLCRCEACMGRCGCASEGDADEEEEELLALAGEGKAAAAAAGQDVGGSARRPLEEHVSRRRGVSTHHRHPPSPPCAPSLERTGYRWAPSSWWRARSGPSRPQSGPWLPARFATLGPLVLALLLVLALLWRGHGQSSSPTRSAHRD
pUL50(1–358)-HA (HCMV (strain AD169)): residues 1-358 of P16791
UniProt P16794: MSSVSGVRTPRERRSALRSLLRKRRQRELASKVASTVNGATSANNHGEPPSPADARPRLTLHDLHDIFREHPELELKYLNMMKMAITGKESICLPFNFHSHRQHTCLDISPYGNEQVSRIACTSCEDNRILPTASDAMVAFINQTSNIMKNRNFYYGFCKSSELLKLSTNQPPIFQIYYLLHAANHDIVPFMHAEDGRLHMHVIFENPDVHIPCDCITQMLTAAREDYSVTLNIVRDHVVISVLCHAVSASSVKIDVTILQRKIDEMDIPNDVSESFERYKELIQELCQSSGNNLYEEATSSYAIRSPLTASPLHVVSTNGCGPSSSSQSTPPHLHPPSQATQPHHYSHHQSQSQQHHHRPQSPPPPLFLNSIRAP
truncated pUL53, Flag-tagged (wild-type): residues 1-87 of P16794

Question: With “GAL4 AD::pUL53-co (from UniProt P16794 1-376)” as the molecule, how does the binding [1] read?
Answer: binds

Question: With “pUL50(1–358)-HA (from UniProt P16791 1-358) (domain or fragment)” as the molecule, how does the binding [2] read?
Answer: binds

Question: What does the source list for pUL53-Flag (from UniProt P16794 1-376)?
Answer: binding [3]: binds; binding [4]: binds

B1: GAL4 AD::BFLF2 (protein, UniProt P0CK47 1-318)
chain: MAPVTPDAVNARQQRPADPALRRLMHPHHRNYTASKASAHSVKSVSRCGKSRSELGRMERVGSVARSICSRHTRHGVDRSHFSLRDFFRGISANFELGKDFLREMNTPIHVSEAVFLPLSLCTLSPGRCLRLSPFGHSLTLGSHCEICINRSQVHVPQEFSSTQLSFFNNVHKIIPNKTFYVSLLSSSPSAVKAGLSQPSLLYAYLVTGHFCGTICPIFSTNGKGRLIMHLLLQGTSLHIPETCLKLLCENIGPTYELAVDLVGDAFCIKVSPRDTVYEKAVNVDEDAIYEAIKDLECGDELRLQIINYTQLILENKQ
Question: How did the binding [5] turn out when B1 was run?
Answer: binds

B2: Flag-BFLF2 (protein, UniProt P0CK47 1-318)
chain: B1 chain
Question: For B2, which binding [6] is on record?
Answer: binds

Question: What about the binding [7] of the same molecule?
Answer: binds
